Test [1] addresses PI 3-kinase (p110α/p85α) (UniProt P32871). Briefly: PI 3-kinase inhibition assay. Type of test: biochemical. The settings on record: read-out: PI 3-kinase Inhibition IC50; GST-fused p110α/p85α.
Test [2] deals with PI 3-kinase (p110α/p85α). Briefly: PI 3-kinase inhibition assay. The settings on record: selectivity ratio from the IC50s for PI 3-kinase and DNA-PK. The format is biochemical.

Amino acid sequences for entries named in this document (tags omitted).
UniProt P32871, whole entry: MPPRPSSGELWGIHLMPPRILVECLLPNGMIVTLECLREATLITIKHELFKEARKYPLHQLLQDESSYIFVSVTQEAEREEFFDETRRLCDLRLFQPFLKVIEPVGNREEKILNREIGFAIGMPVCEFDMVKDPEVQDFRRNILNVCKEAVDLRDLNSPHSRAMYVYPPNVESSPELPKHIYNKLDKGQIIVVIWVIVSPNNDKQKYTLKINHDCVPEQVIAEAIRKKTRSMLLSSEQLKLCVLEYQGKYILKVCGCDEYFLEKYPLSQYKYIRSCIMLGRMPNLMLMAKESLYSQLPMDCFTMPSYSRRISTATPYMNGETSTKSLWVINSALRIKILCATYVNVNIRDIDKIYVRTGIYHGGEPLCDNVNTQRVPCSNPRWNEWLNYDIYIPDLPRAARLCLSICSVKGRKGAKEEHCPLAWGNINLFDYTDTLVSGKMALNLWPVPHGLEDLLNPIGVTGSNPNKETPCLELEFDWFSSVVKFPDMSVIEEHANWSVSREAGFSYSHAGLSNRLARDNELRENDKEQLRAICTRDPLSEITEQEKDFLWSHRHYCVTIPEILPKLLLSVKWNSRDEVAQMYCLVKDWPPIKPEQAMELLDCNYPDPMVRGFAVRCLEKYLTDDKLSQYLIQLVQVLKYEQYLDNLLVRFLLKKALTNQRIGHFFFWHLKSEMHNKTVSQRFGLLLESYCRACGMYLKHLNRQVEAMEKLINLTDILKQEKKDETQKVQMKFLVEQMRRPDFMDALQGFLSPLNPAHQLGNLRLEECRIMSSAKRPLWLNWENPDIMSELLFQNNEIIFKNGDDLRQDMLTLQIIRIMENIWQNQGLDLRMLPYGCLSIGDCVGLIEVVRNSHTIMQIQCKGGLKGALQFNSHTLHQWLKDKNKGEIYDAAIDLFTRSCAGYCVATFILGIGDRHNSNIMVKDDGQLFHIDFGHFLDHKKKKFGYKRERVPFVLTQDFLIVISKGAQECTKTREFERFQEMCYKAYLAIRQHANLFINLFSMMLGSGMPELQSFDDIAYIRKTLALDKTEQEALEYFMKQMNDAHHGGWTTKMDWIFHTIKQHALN

Molecules are shown by their SMILES. Structures were worked out from names or drawings and are uncertain.

Take `O=c1cc(-c2ccc(Cl)cc2)oc(N2CCOCC2)c1` [Compound 284, 2-(4-chlorophenyl)-6-(morpholin-4-yl)-pyran-4-one]: the IC50 (commonly the concentration that gives 50% inhibition) at PI 3-kinase (p110α/p85α) [1] was determined as 10 µM. The “Δ(DNA-PK/PI 3-K)” value in the test with PI 3-kinase (p110α/p85α) [2] is on record as 29.

The values are drawn from US7674823B2, “DNA-PK inhibitors” (Cancer Research Technology Limited, priority 2001, dated 2010).
